Results from the supplement of paper PMC10849652.
This is one part of the list.

Protein sequences, listed by entry. Tags and fused reporters are not part of them. Lines headed by an entry give the natural chain unless they say otherwise; changes in a name come on top.
UniProt Q8WWL2: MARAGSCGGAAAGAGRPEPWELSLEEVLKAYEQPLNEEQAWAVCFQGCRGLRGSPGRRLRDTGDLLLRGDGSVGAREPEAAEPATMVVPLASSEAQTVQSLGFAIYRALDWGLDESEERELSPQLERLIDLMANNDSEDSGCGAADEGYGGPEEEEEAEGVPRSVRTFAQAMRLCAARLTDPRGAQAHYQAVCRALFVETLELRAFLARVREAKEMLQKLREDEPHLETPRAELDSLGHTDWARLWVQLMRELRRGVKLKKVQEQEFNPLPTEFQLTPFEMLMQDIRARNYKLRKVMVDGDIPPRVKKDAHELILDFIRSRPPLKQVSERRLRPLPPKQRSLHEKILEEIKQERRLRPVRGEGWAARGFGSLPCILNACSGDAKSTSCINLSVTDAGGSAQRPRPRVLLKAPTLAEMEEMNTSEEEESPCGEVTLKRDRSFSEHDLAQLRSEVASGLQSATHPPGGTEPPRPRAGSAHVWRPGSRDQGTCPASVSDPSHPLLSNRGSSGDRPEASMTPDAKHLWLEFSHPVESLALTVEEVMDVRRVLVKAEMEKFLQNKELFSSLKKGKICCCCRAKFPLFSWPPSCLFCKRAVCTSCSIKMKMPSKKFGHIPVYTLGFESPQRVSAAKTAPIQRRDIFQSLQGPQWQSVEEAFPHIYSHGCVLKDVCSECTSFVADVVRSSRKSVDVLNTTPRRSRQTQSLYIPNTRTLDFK
UniProt P81877: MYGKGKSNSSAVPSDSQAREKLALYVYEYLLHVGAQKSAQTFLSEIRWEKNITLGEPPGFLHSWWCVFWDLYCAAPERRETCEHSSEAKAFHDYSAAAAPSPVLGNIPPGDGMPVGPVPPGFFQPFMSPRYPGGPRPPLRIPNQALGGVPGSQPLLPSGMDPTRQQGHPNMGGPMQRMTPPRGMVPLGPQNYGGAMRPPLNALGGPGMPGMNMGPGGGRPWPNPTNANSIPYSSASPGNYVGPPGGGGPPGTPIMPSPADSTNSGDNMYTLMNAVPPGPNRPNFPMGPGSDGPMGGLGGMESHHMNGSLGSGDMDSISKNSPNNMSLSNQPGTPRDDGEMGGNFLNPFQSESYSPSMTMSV
UniProt Q15532, whole entry, looked up: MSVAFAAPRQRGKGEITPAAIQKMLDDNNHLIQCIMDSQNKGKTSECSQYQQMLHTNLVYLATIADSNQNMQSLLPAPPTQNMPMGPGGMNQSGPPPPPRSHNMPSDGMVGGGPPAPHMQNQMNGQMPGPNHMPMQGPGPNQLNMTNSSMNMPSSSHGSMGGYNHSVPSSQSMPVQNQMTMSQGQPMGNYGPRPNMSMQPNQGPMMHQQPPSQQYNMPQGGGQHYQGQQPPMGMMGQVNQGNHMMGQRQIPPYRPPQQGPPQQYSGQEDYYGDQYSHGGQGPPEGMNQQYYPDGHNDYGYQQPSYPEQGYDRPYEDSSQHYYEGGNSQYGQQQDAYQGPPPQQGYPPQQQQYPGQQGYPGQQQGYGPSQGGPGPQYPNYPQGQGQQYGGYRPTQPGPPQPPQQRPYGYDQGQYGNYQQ
UniProt P35325: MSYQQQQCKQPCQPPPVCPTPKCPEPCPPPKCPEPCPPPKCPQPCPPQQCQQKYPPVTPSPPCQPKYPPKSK
UniProt Q96EA4: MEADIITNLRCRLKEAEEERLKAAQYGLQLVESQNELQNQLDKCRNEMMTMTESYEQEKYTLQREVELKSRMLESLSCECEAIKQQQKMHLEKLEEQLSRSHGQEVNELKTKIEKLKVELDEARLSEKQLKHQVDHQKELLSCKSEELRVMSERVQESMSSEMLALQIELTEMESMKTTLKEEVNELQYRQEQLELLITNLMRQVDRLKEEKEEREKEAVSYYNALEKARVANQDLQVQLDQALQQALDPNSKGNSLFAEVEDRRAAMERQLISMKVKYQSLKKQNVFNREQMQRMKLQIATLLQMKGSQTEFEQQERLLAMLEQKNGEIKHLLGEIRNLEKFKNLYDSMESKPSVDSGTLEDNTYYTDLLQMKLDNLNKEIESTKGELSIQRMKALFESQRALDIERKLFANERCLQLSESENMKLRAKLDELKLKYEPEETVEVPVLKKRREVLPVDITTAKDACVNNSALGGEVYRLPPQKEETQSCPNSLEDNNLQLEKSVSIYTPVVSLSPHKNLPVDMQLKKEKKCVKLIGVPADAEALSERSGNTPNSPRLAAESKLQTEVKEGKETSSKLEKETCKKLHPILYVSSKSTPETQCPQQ
UniProt Q9H8P0: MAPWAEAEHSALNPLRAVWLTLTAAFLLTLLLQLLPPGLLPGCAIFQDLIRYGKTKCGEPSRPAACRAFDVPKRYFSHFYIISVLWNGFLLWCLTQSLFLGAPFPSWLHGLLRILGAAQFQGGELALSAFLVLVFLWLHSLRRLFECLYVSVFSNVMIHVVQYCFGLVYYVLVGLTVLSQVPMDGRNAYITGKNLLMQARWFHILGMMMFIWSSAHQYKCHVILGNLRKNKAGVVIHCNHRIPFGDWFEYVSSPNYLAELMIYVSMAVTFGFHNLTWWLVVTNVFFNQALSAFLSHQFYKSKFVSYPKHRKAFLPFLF
UniProt Q9Y365: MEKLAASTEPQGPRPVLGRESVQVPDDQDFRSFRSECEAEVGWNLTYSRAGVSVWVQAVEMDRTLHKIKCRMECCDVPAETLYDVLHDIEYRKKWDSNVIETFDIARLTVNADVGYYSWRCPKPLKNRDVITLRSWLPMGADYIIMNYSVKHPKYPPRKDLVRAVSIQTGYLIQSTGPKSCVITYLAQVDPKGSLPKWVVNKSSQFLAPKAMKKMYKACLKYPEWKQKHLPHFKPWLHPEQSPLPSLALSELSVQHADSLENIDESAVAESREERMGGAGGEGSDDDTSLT
UniProt Q6ZRS2, whole entry, looked up: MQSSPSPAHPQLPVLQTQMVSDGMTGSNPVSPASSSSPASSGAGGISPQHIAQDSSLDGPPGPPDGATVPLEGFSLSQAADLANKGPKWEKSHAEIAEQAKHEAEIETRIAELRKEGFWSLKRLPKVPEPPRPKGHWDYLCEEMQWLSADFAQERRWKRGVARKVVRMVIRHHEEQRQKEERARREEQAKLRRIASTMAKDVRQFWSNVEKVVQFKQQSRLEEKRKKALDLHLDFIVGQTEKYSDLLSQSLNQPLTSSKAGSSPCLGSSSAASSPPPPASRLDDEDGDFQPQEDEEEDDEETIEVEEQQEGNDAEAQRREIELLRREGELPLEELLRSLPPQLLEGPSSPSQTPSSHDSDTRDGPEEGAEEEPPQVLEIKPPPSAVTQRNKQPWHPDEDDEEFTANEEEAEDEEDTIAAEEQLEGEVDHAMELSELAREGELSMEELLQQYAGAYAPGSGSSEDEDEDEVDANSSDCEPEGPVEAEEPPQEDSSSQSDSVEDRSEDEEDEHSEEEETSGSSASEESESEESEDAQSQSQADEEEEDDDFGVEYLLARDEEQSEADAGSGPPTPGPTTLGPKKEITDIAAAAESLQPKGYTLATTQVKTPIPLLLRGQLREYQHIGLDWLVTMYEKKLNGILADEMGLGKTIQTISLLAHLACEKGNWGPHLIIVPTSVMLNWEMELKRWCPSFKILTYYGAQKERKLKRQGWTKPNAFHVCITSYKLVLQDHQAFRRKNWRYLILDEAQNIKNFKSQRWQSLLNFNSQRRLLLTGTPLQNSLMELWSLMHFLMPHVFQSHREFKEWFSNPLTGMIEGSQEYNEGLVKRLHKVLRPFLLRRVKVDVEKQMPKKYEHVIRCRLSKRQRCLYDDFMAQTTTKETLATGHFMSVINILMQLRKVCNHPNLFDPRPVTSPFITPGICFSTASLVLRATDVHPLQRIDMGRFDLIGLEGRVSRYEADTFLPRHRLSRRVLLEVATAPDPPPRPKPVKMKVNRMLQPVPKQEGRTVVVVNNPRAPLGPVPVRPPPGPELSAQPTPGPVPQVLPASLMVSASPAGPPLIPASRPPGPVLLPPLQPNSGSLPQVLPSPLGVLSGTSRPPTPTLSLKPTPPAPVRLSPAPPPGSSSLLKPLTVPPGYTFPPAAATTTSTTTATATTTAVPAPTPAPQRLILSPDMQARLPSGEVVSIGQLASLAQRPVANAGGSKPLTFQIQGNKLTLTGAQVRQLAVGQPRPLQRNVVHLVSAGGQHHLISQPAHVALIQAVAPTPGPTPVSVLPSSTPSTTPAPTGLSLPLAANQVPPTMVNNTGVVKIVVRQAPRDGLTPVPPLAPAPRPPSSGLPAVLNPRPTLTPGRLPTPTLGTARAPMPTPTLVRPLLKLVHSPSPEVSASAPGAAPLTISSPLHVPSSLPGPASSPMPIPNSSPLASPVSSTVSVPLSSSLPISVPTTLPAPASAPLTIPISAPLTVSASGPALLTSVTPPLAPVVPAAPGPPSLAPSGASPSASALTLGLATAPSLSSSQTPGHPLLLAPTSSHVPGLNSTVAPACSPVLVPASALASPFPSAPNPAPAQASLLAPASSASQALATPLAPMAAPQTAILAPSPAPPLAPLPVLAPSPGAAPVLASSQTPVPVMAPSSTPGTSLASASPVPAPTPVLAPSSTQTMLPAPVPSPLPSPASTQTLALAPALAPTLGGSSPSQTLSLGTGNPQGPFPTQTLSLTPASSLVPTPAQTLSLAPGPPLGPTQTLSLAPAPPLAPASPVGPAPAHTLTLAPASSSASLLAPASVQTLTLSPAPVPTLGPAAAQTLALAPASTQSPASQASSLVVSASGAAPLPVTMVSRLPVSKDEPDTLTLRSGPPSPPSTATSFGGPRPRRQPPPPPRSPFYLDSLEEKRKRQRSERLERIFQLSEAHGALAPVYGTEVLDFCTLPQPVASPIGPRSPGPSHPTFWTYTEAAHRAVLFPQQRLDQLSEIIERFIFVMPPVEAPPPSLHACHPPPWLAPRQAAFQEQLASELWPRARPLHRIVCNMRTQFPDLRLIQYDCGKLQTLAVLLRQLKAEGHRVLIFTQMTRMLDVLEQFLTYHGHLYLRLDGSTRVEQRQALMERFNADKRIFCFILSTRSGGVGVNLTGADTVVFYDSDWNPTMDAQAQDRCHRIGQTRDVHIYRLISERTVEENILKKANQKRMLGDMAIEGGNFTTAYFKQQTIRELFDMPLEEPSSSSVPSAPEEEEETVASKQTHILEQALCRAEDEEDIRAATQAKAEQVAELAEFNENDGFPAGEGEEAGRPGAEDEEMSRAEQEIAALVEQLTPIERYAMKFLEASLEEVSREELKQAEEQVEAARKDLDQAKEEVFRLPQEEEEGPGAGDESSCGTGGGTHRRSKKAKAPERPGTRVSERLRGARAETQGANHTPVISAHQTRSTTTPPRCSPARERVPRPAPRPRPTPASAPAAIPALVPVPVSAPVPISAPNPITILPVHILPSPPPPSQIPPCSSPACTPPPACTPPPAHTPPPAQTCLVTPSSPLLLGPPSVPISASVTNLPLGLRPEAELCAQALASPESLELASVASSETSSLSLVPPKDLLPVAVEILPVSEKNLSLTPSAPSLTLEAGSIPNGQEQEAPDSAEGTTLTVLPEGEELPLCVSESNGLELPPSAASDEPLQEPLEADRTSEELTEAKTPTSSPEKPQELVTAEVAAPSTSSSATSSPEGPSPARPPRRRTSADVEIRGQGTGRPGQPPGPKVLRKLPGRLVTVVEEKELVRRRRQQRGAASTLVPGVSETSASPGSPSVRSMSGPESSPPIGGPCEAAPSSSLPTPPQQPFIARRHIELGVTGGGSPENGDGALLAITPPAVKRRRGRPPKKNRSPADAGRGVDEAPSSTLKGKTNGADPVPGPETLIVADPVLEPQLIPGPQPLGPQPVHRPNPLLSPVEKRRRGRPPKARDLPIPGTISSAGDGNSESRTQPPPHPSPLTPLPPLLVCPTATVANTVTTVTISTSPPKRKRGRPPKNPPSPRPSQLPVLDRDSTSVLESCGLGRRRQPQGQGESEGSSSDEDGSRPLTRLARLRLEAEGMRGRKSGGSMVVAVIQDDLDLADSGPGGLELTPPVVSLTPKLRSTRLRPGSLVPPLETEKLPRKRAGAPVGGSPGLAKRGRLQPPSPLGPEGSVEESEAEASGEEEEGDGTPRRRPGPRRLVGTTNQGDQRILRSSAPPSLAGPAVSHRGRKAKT
UniProt Q86XZ4: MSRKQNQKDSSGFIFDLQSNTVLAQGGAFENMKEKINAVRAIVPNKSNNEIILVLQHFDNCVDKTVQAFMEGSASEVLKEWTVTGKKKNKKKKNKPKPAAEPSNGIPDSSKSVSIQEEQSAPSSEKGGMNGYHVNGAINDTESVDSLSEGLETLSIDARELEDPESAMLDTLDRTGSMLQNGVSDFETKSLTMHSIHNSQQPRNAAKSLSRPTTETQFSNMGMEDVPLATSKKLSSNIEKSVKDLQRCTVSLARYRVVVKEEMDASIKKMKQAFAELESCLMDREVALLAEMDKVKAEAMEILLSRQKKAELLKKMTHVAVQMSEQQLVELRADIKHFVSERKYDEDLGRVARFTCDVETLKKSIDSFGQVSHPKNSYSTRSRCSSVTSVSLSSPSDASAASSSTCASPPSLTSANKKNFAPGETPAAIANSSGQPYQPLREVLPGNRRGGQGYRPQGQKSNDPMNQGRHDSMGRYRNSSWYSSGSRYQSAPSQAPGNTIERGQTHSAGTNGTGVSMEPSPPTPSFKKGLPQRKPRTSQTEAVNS

These targets were tested with O=C(CCCCCCNC(=O)c1cnc(N(c2ccccc2)c2ccccc2Cl)nc1)NO [citarinostat] (assay: log2 fold change, soluble protein after heating vs DMSO (PISA); higher = thermal stabilisation; K562 cells, 10 uM, 30 min; active = over 0.2 and 3.5 SD of the protein, either way, in both replicates (recomputed)).
Summary of the method: (§1)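 Thermal stability values are relative to control samples and come from duplicates. They are expressed as log2 fold changes. For measurement, K562 cells (2×10^6 cells/mL) received 10 μM compound for 30 min, and aliquots were heated for 3 min over 48°C-58°C, pooled, and extracted at 4°C in PBS with 0.5% NP-40. Soluble protein, the supernatant after 21,000xg for 90 min, was quantified by TMTpro 16plex LC-MS/MS with equalised channel sums.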

log2 fold change, inactive:
SPIRE2 (UniProt Q8WWL2) 0.018
SPEN (UniProt Q96T58) 0.061
SPIRE1 (UniProt Q08AE8) 0.022
SREBF2 (UniProt Q12772) 0.05
SSBP2 (UniProt P81877) -0.045
SS18 (UniProt Q15532) 0.074
SPRR2B (UniProt P35325) -0.038
STIM2 isoform 2 (UniProt Q9P246) -0.029
SPDL1 (UniProt Q96EA4) 0.181
SRD5A3 (UniProt Q9H8P0) 0.085
STARD10 (UniProt Q9Y365) 0.027
SPRR1B (UniProt P22528) -0.369
SRCAP (UniProt Q6ZRS2) 0.014
SREBF1 isoform 4 (UniProt P36956) 0.095
SPATS2 (UniProt Q86XZ4) -0.002

Each target was assayed with O=C(O)c1ccc2c(c1)nc(Nc1cccc(Cl)c1)c1ccncc12 [silmitasertib] in the same assay as above.
Summary of the method: as §1

log2 fold change, inactive:
SPEN (UniProt Q96T58) -0.046
SPIRE1 (UniProt Q08AE8) -0.008
SREBF2 (UniProt Q12772) 0.009
SSBP2 (UniProt P81877) -0.172
SS18 (UniProt Q15532) 0.035
STAB1 (UniProt Q9NY15) 0.288
SPRR2B (UniProt P35325) 0.048
SSBP4 (UniProt U3KPY3) 0.133
STAR (UniProt P49675) -0.266
SSB (UniProt E7ERC4) 0.022
SSR2 (UniProt P43308) -0.177
SPPL3 (UniProt Q8TCT6) -0.178
SRD5A3 (UniProt Q9H8P0) -0.005
SPRR1B (UniProt P22528) -0.099
SRGAP1 (UniProt Q7Z6B7) -0.04
SRCAP (UniProt Q6ZRS2) -0.022
SREBF1 isoform 4 (UniProt P36956) 0.01

These targets were tested with O=C1NC(=O)C(c2cnc3ccccn23)=C1c1cn2c3c(cc(F)cc13)CN(C(=O)N1CCCCC1)CC2 in the same assay as above.
Summary of the method: as §1

log2 fold change, inactive:
STK16 (UniProt O75716) -0.235
SPIRE2 (UniProt Q8WWL2) 0.679
SPTY2D1 (UniProt Q68D10) 0.219
SRBD1 (UniProt Q8N5C6) -0.424
SPEN (UniProt Q96T58) 0.033
SPIRE1 (UniProt Q08AE8) 0.224
SSX1 (UniProt Q16384) 0.056
SREBF2 (UniProt Q12772) -0.049
SSBP2 (UniProt P81877) -0.126
SPRED1 (UniProt Q7Z699) -0.016
STAB1 (UniProt Q9NY15) -0.356
SPRR2B (UniProt P35325) -0.153
STIM2 isoform 2 (UniProt Q9P246) 0.177
SPATS2L isoform 3 (UniProt Q9NUQ6) 0.196
STARD10 (UniProt Q9Y365) -0.087
SPINT1 (UniProt O43278) -0.269
SQOR (UniProt Q9Y6N5) -0.034
SRGAP1 (UniProt Q7Z6B7) 0.039
SREBF1 isoform 4 (UniProt P36956) 0.057
ST3GAL1 (UniProt Q11201) -0.057

These targets were tested with c1cc(OCCN2CCCCC2)cc(-c2n[nH]c3ccc(-c4nnc[nH]4)cc23)c1 in the same assay as above.
Summary of the method: as §1

log2 fold change, inactive:
SPIRE2 (UniProt Q8WWL2) 0.659
SPEN (UniProt Q96T58) 0.16
SPIRE1 (UniProt Q08AE8) 0.023
SREBF2 (UniProt Q12772) 0.012
SSBP2 (UniProt P81877) 0.086
SS18 (UniProt Q15532) -0.084
SPRR2B (UniProt P35325) 0.362
STIM2 isoform 2 (UniProt Q9P246) -0.028
SPDL1 (UniProt Q96EA4) 0.027
SRD5A3 (UniProt Q9H8P0) -0.145
STARD10 (UniProt Q9Y365) -0.099
SPRR1B (UniProt P22528) 2.16
SRCAP (UniProt Q6ZRS2) 0.001
SREBF1 isoform 4 (UniProt P36956) 0.007
SPATS2 (UniProt Q86XZ4) -0.152

These targets were tested with c1cn2cc(-c3ccc4cn[nH]c4c3)nc(Nc3ccc(N4CCOCC4)cc3)c2n1 [entospletinib] in the same assay as above.
Summary of the method: as §1

log2 fold change, inactive:
SPIRE2 (UniProt Q8WWL2) 0.425
SPEN (UniProt Q96T58) -0.036
SREBF2 (UniProt Q12772) -0.058
SSBP2 (UniProt P81877) -0.023
SS18 (UniProt Q15532) -0.033
SPRR2B (UniProt P35325) 0.012
STIM2 isoform 2 (UniProt Q9P246) 0.061
SPDL1 (UniProt Q96EA4) -0.143
SRD5A3 (UniProt Q9H8P0) -0.028
STARD10 (UniProt Q9Y365) 0.022
SPRR1B (UniProt P22528) -0.078
SPATS2 (UniProt Q86XZ4) -0.016
